Experimental data published in PubChem BioAssay AID292 (DTP/NCI, 2004).
The list shows only some results of the screen, not a fair sample: it is rich in T/C values a quarter to a half above the control, in often repeated tests (any T/C) and in doses without a T/C. Further doses and runs are listed elsewhere. T/C: endpoint of the treated group in % of that of the vehicle group. Some entries give survivors of the animals treated and no T/C: the source files T/C as zero there, which appears to mark a toxic dose or a test without result, not a measured value. Some survivor counts are full or nearly so, which does not show that the dose was tolerated: the source hardly ever lists a survival T/C far under the control, and the zero likely stands for such cases as well. Counts of survivors are from the toxicity check (mostly the fifth day) where no day follows; animals may have died later. Schedules are NCI's codes, taken here to give the interval after Q, in days (D) or hours (H), and the number of doses after X. Some entries were tested several times; their values stand side by side, smallest first. Where survival is the endpoint, the PubChem record calls one and a half times the control and up active, and a quarter to a half above the control has no call in these data; cut-offs in other NCI protocols can differ. Some T/C values carry the count of animals alive at the toxicity check (mostly the fifth day); without a count, all were alive then.

System: B6C3F1 mice, ip Sarcoma M5076, median survival T/C
Test: NCI In Vivo Anticancer Drug Screen. Data for tumor model Sarcoma M5076 (intraperitoneal) in B6C3F1 mice
Conditions: T/C endpoint: median survival time, higher T/C = longer survival
Method in brief: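 Transplantable tumour in mice; compound-treated vs vehicle-treated groups. Read-out: survival. Value = treated/control ratio.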

[1] = dose: 300.0 mg/kg/injection, schedule: Q04DX004 (ip), vehicle: saline with Tween-80
[2] = dose: 800.0 mg/kg/injection, schedule: Q04DX004 (ip), vehicle: Klucel (hydroxypropylcellulose) (HPC)

Compound: COc1cc(NS(C)(=O)=O)ccc1Nc1c2ccccc2nc2ccccc12
- survivor count (dose: 2.0 mg/kg/injection, schedule: Q04DX005 (ip), vehicle: other): 0 of 8 on day 17
- survivor count (dose: 4.0 mg/kg/injection, schedule: Q04DX005 (ip), vehicle: other): 0 of 8 on day 17
- survivor count (dose: 8.0 mg/kg/injection, schedule: Q04DX005 (ip), vehicle: other): 0 of 8 on day 17
- survivor count (dose: 16.0 mg/kg/injection, schedule: Q04DX005 (ip), vehicle: other): 0 of 8 on day 17
- survivor count (dose: 32.0 mg/kg/injection, schedule: Q04DX005 (ip), vehicle: other): 0 of 8 on day 17

Compound: CCOc1cc2c(cc1C(C)c1ccc(OC)cc1)OCO2 (centres undefined)
- survivor count (dose: 400.0 mg/kg/injection, schedule: Q04DX004 (ip), vehicle: distilled water + alcohol): 6 of 10 on day 14
- survivor count (dose: 800.0 mg/kg/injection, schedule: Q04DX004 (ip), vehicle: distilled water + alcohol): 0 of 10 on day 14

Compound: O=C1CN(CCN2CC(=O)N(CN3CCOCC3)C(=O)C2)CC(=O)N1CN1CCOCC1
- survivor count (dose: 200.0 mg/kg/injection, schedule: Q04DX004 (ip), vehicle: water): 1 of 10 on day 14
- survivor count (dose: 400.0 mg/kg/injection, schedule: Q04DX004 (ip), vehicle: water): 0 of 10 on day 14
- survivor count (dose: 800.0 mg/kg/injection, schedule: Q04DX004 (ip), vehicle: water): 0 of 10 on day 14

Compound: Cn1nc2c(c(Cl)c1=O)Nc1ccccc1O2
- survivor count [1]: 10 of 10 on day 14
- survivor count (dose: 600.0 mg/kg/injection, schedule: Q04DX004 (ip), vehicle: saline with Tween-80): 9 of 10 on day 14

Compound: NCCSC(C[N+](=O)[O-])c1ccccc1Cl (centres undefined)
- T/C (dose: 100.0 mg/kg/injection, schedule: Q04DX004 (ip), vehicle: saline with Tween-80): 128 % of control
- survivor count (dose: 200.0 mg/kg/injection, schedule: Q04DX004 (ip), vehicle: saline with Tween-80): 0 of 10 on day 14

Compound: O=C(CSc1nnc(CSc2ccc(Cl)cc2)n1-c1ccccc1)NC(=O)Nc1ccccc1
- survivor count (dose: 75.0 mg/kg/injection, schedule: Q04DX004 (ip), vehicle: Klucel (hydroxypropylcellulose) (HPC)): 10 of 10 on day 14
- survivor count (dose: 150.0 mg/kg/injection, schedule: Q04DX004 (ip), vehicle: Klucel (hydroxypropylcellulose) (HPC)): 10 of 10 on day 14
- survivor count (dose: 300.0 mg/kg/injection, schedule: Q04DX004 (ip), vehicle: Klucel (hydroxypropylcellulose) (HPC)): 10 of 10 on day 14
- survivor count (dose: 600.0 mg/kg/injection, schedule: Q04DX004 (ip), vehicle: Klucel (hydroxypropylcellulose) (HPC)): 10 of 10 on day 14

Compound: C/C(=C\c1ccccc1)C1C(C#N)C(=O)NC(=O)C1C#N (centres undefined)
- survivor count [2]: 3 of 10 on day 14

Compound: O=[N+]([O-])c1c(O)c(CNCCCO)cc(CNCCCO)c1O
- survivor count (dose: 100.0 mg/kg/injection, schedule: Q04DX004 (ip), vehicle: suspension in saline): 6 of 10 on day 14

Compound: CC1Oc2cc3c(-c4c(O)cc(O)c5c(O)c6c(cc45)OC(C)C(C)C6=O)c(O)cc(O)c3c(O)c2C(=O)C1C (centres undefined)
- T/C (dose: 2.5 mg/kg/injection, schedule: Q01DX009 (ip), vehicle: suspension in saline): 129 % of control
- T/C (dose: 2.5 mg/kg/injection, schedule: Q04DX004 (ip), vehicle: suspension in saline): 134 % of control
- survivor count (dose: 5.0 mg/kg/injection, schedule: Q01DX009 (ip), vehicle: suspension in saline): 0 of 10 on day 14
- T/C (dose: 5.0 mg/kg/injection, schedule: Q04DX004 (ip), vehicle: suspension in saline): 128, 135 [9 of 10 alive on day 14], 138 % of control
- T/C (dose: 8.33 mg/kg/injection, schedule: Q04DX004 (ip), vehicle: suspension in saline): 138 % of control
- survivor count (dose: 10.0 mg/kg/injection, schedule: Q01DX009 (ip), vehicle: suspension in saline): 0 of 10 on day 14
- survivor count (dose: 10.0 mg/kg/injection, schedule: Q04DX004 (ip), vehicle: suspension in saline): 4 of 10 on day 14
- survivor count (dose: 13.88 mg/kg/injection, schedule: Q04DX004 (ip), vehicle: suspension in saline): 7 of 10 on day 14 and 8 of 10 on day 14
- survivor count (dose: 20.0 mg/kg/injection, schedule: Q04DX004 (ip), vehicle: suspension in saline): 0 of 10 on day 14

Compound: Cc1ccc(NN=O)nc1
- T/C (dose: 6.25 mg/kg/injection, schedule: Q04DX004 (ip), vehicle: water): 135 % of control
- T/C (dose: 12.5 mg/kg/injection, schedule: Q04DX004 (ip), vehicle: water): 125 and 144 % of control
- T/C (dose: 25.0 mg/kg/injection, schedule: Q04DX004 (ip), vehicle: water): 135 % of control [8 of 10 alive on day 14]
- survivor count (dose: 50.0 mg/kg/injection, schedule: Q04DX004 (ip), vehicle: water): 0 of 10 on day 14
- survivor count (dose: 100.0 mg/kg/injection, schedule: Q04DX004 (ip), vehicle: water): 0 of 10 on day 14

Compound: CCCCCCN1CCN(Cc2ccc(N(CC)CC)cc2)C(=O)C1=O
- T/C (dose: 100.0 mg/kg/injection, schedule: Q04DX004 (ip), vehicle: Klucel (hydroxypropylcellulose) (HPC)): 131 % of control
- survivor count (dose: 200.0 mg/kg/injection, schedule: Q04DX004 (ip), vehicle: Klucel (hydroxypropylcellulose) (HPC)): 3 of 10 on day 14
- survivor count (dose: 400.0 mg/kg/injection, schedule: Q04DX004 (ip), vehicle: Klucel (hydroxypropylcellulose) (HPC)): 0 of 10 on day 14

Compound: O=C(O)c1ccc(NC(=O)C2C(=O)C(=O)N(c3ccc(C(=O)O)cc3)C2=O)cc1 (centres undefined)
- survivor count (dose: 800.0 mg/kg/injection, schedule: Q04DX004 (ip), vehicle: Klucel + Tween-80): 2 of 10 on day 14

Compound: Cc1ccc(C)c(NC(=O)C2C(=O)C(=O)N(c3cc(C)ccc3C)C2=O)c1 (centres undefined)
- survivor count [2]: 0 of 10 on day 14

Compound: NC(=O)C(N)C(F)c1ccccc1 (centres undefined)
- survivor count (dose: 500.0 mg/kg/injection, schedule: Q04DX004 (ip), vehicle: saline with Tween-80): 3 of 10 on day 14

Compound: O=[N+]([O-])c1ccc(/C=C/C=C/C=C/C=C/c2ccc(S(=O)(=O)F)cc2Cl)c(Cl)c1
- survivor count (dose: 150.0 mg/kg/injection, schedule: Q04DX004 (ip), vehicle: saline with Tween-80): 10 of 10 on day 14
- survivor count [1]: 10 of 10 on day 14

Compound: c1ccc2[nH]c(CN(CCN(Cc3nc4ccccc4[nH]3)Cc3nc4ccccc4[nH]3)Cc3nc4ccccc4[nH]3)nc2c1
- survivor count (dose: 25.0 mg/kg/injection, schedule: Q04DX004 (ip), vehicle: other): 3 of 10 on day 14
- survivor count (dose: 50.0 mg/kg/injection, schedule: Q04DX004 (ip), vehicle: other): 1 of 10 on day 14
